Source: publication doi:10.1101/2025.06.12.659263
Like-named read-outs stand apart in the source and are kept apart here. No constants are given. Whether binding was seen depends on the method and setting. In cells and extracts the contact can be indirect. Some entries that bind do so weakly or less than the wild type.

Chains of the proteins cited; added tags and fusions are not shown. Lines headed by an entry give the natural chain unless they say otherwise; changes in a name come on top. Residues count along the entry.
UniProt P23201: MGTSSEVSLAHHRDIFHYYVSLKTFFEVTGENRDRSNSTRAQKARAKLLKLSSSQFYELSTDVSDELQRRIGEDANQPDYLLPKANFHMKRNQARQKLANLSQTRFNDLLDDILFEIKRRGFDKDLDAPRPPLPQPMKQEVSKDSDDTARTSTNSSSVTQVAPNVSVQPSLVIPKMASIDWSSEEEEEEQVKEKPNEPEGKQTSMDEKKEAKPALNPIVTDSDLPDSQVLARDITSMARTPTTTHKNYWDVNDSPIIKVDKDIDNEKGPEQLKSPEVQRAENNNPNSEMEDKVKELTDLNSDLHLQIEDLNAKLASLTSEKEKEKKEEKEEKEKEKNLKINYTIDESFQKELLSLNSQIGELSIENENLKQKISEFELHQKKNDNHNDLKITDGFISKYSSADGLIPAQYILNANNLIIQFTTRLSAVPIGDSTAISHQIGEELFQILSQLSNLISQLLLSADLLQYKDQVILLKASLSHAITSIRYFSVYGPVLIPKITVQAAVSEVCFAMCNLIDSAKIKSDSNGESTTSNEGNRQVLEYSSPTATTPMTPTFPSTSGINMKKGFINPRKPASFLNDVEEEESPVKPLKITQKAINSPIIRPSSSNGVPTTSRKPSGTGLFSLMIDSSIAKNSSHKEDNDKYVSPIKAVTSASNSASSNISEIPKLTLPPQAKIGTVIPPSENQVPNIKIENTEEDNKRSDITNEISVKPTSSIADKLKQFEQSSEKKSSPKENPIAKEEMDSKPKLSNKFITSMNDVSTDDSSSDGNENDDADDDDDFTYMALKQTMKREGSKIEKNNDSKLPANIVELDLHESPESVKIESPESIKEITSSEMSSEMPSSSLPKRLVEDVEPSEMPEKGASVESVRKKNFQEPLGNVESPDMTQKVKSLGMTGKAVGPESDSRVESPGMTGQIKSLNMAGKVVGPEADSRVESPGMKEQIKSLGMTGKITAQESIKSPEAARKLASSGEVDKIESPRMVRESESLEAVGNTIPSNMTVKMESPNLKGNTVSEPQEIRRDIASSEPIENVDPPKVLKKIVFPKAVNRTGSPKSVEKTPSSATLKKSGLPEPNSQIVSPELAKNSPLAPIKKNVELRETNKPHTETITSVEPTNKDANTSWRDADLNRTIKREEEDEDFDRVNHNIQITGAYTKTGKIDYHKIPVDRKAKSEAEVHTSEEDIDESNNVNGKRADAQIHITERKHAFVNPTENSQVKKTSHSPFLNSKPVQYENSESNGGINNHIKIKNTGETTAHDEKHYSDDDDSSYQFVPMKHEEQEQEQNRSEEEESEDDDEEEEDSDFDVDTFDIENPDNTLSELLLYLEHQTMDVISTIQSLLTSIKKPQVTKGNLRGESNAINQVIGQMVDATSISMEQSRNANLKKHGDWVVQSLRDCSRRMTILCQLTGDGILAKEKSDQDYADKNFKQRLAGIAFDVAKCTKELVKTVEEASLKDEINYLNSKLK
SHD1CRU: residues 1-124 of P23201

T1: Msb3CRU (S. cerevisiae) (UniProt P48566)
T1 sequence: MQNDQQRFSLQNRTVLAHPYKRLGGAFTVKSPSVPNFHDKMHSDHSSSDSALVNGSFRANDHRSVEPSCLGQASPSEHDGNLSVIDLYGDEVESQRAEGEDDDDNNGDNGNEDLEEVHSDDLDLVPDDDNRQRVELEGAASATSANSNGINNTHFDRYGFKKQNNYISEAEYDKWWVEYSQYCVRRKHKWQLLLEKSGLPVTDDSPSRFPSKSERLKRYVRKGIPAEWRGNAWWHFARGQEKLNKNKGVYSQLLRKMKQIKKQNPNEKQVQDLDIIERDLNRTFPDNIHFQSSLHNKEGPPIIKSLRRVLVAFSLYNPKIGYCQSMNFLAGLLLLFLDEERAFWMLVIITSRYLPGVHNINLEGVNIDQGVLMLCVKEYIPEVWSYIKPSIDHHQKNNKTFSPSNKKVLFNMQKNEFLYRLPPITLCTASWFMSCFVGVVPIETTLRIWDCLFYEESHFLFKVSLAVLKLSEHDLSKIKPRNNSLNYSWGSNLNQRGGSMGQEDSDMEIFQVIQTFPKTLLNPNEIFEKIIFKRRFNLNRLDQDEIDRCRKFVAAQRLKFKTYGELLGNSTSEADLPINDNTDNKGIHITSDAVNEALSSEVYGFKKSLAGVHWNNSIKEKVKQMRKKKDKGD

T2: Msb4CRU (S. cerevisiae) (UniProt Q12317)
T2 sequence: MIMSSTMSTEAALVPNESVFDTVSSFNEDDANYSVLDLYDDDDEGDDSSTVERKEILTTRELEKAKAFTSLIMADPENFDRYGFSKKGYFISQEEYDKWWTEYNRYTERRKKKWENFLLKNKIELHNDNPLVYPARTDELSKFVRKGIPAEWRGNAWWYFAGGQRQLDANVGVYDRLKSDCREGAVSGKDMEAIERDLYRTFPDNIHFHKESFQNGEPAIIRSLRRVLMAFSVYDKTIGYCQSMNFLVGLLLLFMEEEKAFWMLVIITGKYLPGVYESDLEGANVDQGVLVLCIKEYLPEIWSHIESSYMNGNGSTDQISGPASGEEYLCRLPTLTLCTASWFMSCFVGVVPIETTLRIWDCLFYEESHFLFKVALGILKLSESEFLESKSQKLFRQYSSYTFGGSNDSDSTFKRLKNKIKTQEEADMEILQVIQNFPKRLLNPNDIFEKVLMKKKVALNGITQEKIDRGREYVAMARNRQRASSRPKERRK

T3: Ste5CRU (S. cerevisiae) (UniProt P32917)
T3 sequence: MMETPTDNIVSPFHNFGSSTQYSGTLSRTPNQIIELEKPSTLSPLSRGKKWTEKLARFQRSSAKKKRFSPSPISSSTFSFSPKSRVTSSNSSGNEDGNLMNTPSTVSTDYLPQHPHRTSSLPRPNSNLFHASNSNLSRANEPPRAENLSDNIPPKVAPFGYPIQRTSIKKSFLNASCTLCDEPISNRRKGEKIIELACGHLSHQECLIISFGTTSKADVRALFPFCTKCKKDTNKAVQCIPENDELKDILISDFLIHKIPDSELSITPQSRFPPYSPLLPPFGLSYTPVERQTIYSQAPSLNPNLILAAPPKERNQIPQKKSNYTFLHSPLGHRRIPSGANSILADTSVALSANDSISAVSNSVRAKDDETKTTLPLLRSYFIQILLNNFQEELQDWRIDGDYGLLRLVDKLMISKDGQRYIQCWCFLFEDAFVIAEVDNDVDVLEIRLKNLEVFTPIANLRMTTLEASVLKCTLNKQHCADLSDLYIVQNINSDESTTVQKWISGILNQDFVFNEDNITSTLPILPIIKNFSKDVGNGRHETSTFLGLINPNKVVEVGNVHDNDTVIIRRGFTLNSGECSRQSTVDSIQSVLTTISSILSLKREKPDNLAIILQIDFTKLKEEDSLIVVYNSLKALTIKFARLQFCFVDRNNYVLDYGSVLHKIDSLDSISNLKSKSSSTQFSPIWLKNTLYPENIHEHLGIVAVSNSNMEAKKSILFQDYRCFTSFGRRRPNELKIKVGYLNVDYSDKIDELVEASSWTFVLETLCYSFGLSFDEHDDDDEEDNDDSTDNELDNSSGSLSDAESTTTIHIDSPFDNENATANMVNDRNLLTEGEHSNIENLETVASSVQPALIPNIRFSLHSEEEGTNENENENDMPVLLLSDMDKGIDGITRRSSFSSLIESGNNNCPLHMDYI


Legend:
Assay in all cases: split reporter
Msb3CRU (S. cerevisiae) = molecular target: T1, Msb3CRU (S. cerevisiae)
Msb4CRU (S. cerevisiae) = molecular target: T2, Msb4CRU (S. cerevisiae)
Spa2CRU (S. cerevisiae) = Spa2CRU (S. cerevisiae) (UniProt P23201)
[1] = molecular target: Msb4_(22-81)-Spa2CRU (S. cerevisiae) (UniProt Q12317+P23201)
SHD1CRU (S. cerevisiae) [2] = molecular target: SHD1CRU (S. cerevisiae) (UniProt P23201)
Ste5CRU (S. cerevisiae) = molecular target: T3, Ste5CRU (S. cerevisiae)
SHD1CRU (S. cerevisiae) [3] = molecular target: SHD1CRU (S. cerevisiae) (UniProt P23201); remark: listed apart in the source

binding (Msb3CRU (S. cerevisiae)) | binding (Msb4CRU (S. cerevisiae)) | binding (Spa2CRU (S. cerevisiae)) | binding (SHD1CRU (S. cerevisiae) [2]) | Molecule | further results
binds | binds |  |  | Nub-Spa2 (from UniProt P23201 1-1466) | 
binds | binds | binds |  | Nub-Pea2 (protein, UniProt P40091 1-420) MHKFDLELSRRANPLLFSAERYEEYPLKYDELKQYLLSQNPSHPHHNSRPYTSIDYFDYLLYRSKNDESEIDLDKKLVSEFALYYVQKEHLNSDDLNPTLNELLKLQPKSADWYEMMLRILESINTTGIDQLTKENNNSFPNSKRARSSTNMGGTDKFNKGAYHTDKADDDKNEILQELTSFLMSNSIQKGIDIKPIPLDDPVKFLKNGINSILDTCVSLEKNTSSPPISPNAAAIQEEDSSKKLEELETAFSDLQLAHNFLTKQFENDRAEYVQDIEKLTRTNRELQDKLLNNHSNLSKTEKKLHELEQENKELEKANNKLNSSRHNFGMSSPASSPVTWDPSSPSSVGSPTSGSGSRSLSIMTSEFKKVLTSTQRKYEKELSDEREHRFKLERELALLKNAEANTSLALNRDDPPDML | binding [1]: binds
 |  |  | no binding | Nub-Ste7_(Δ119-123) (protein, UniProt P06784) MFQRKTLQRRNLKGLNLNLHPDVGNNGQLQEKTETHQGQSRIEGHVMSNINAIQNNSNLFLRRGIKKKLTLDAFGDDQAISKPNTVVIQQPQNEPVLVLSSLSQSPCVSSSSSLSTPCSNNFGLSPSSTNSTPSTIQGLSNIATPVENEHSISLPPLEESLSPAAADLKDTLSGTSNGNYIQLQDLVQLGKIGAGNSGTVVKALHVPDSKIVAKKTIPVEQNNSTIINQLVRELSIVKNVKPHENIITFYGAYYNQHINNEIIILMEYSDCGSLDKILSVYKRFVQRGTVSSKKTWFNELTISKIAYGVLNGLDHLYRQYKIIHRDIKPSNVLINSKGQIKLCDFGVSKKLINSIADTFVGTSTYMSPERIQGNVYSIKGDVWSLGLMIIELVTGEFPLGGHNDTPDGILDLLQRIVNEPSPRLPKDRIYSKEMTDFVNRCCIKNERERSSIHELLHHDLIMKYVSPSKDDKFRHWCRKIKSKIKEDKRIKREALDRAKLEKKQSERSTH | binding (Ste5CRU (S. cerevisiae)): binds

Second part, the molecule before the results:

Molecule | binding (Msb3CRU (S. cerevisiae)) | binding (Msb4CRU (S. cerevisiae)) | binding (Spa2CRU (S. cerevisiae)) | binding (SHD1CRU (S. cerevisiae) [2]) | further results
Msb4_(22-81), the N-terminal extension of Msb4_(22-81)-Spa2CRU (domain or fragment, UniProt Q12317 22-81) TVSSFNEDDANYSVLDLYDDDDEGDDSSTVERKEILTTRELEKAKAFTSLIMADPENFDR |  |  | binds |  | 
Nub-Msb4_(Δ35-39) (protein, UniProt Q12317) MIMSSTMSTEAALVPNESVFDTVSSFNEDDANYSDDDDEGDDSSTVERKEILTTRELEKAKAFTSLIMADPENFDRYGFSKKGYFISQEEYDKWWTEYNRYTERRKKKWENFLLKNKIELHNDNPLVYPARTDELSKFVRKGIPAEWRGNAWWYFAGGQRQLDANVGVYDRLKSDCREGAVSGKDMEAIERDLYRTFPDNIHFHKESFQNGEPAIIRSLRRVLMAFSVYDKTIGYCQSMNFLVGLLLLFMEEEKAFWMLVIITGKYLPGVYESDLEGANVDQGVLVLCIKEYLPEIWSHIESSYMNGNGSTDQISGPASGEEYLCRLPTLTLCTASWFMSCFVGVVPIETTLRIWDCLFYEESHFLFKVALGILKLSESEFLESKSQKLFRQYSSYTFGGSNDSDSTFKRLKNKIKTQEEADMEILQVIQNFPKRLLNPNDIFEKVLMKKKVALNGITQEKIDRGREYVAMARNRQRASSRPKERRK |  |  |  | no binding | 
Msb3_(71-130), the N-terminal extension of Msb3_(71-130)-SHD1CRU (domain or fragment, UniProt P48566 71-130) GQASPSEHDGNLSVIDLYGDEVESQRAEGEDDDDNNGDNGNEDLEEVHSDDLDLVPDDDN |  |  |  |  | binding (SHD1CRU (S. cerevisiae) [3]): binds
